Reference: the RNAGym collection of RNA variant scans (doi:10.1126/science.aae0568)
This sample is rich in variants without activity.

B1: tRNA (parent)
chain: GUUCCGUUGGCGUAAUGGUAACGCGUCUCCCUCCUAAGGAGAAGACUGCGGGUUCGAGUCCCGUACGGAACG

Variants of: B1
Assay: yeast fitness relative to wild type (ratio to wild type); higher = fitter; tRNA-Arg(CCU), competitive growth, 37 C, YPD
Outline: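 Start and end populations of a pooled competition were compared by 100-nucleotide paired-end sequencing of gene amplicons. The Saccharomyces cerevisiae strains carried tRNA-Arg(CCU) gene variants at the native genomic locus, synthesised with a 3% per-site mutation rate at 69 sites, and competed in YPD at 37°C for 24 hours in six parallel replicates. Darwinian fitness relative to wild type was based on the change in genotype frequencies. Genotypes required ≥ 100 starting reads, and estimates < 0.5 were set to 0.5.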

Variant	yeast fitness
U3G C22G C29A G63C	≤ 0.5
U3G C24A C30U	≤ 0.5
U3G C27G U35C G68U	≤ 0.5
U3G C31G G44C U53C A65U	≤ 0.5
U3G C31U	1
U3G G6A A14G G25C U47A G56A	≤ 0.5
U3G G6A A14G G38C G41C A57C C62A	≤ 0.5
U3G G6A U8C	≤ 0.5
U3G G6A U64C C66U	≤ 0.5
U3G G12C C55G C66U	≤ 0.5
U3G G18A C30G G41U C49G A65U G67A	≤ 0.5
U3G G25A C27A G50C	≤ 0.5
U3G G51A	0.701
U3G U7A G9A G23C C30U C31G A43C G51A	≤ 0.5
U3G U7C C27A A57C C62U	≤ 0.5
U3G U32G A65C	≤ 0.5
C4A A14U A20C U28G A57U	≤ 0.5
C4A A14U A70U	≤ 0.5
C4A A15G C33G C60A	≤ 0.5
C4A A20G C29U C31A A40G U47A	≤ 0.5
C4A A20G U28G	≤ 0.5
C4A A20U A21G C27G	≤ 0.5
C4A A20U C34G	≤ 0.5
C4A A21G C27U	0.686

Variant	yeast fitness
C4A A21G C61U A69U	≤ 0.5
C4A A21U A57C	≤ 0.5
C4A A36C G68C	≤ 0.5
C4A A36G A65U A70C	≤ 0.5
C4A A37U A69C A70C	≤ 0.5
C4A A40C A43C C49U C61U	≤ 0.5
C4A A40C C55G A65C	≤ 0.5
C4A A40U G52C A65U G68U	≤ 0.5
C4A A40U G67U A70C	≤ 0.5
C4A A45U U53G A65C	≤ 0.5
C4A C5G A45U	≤ 0.5
C4A C5U C11G C31U G38C G52A C66G	≤ 0.5
C4A C5U C27U A37G	≤ 0.5
C4A C5U C29G C33U U59G A69C	0.533
C4A C5U G58C U64A	0.572
C4A C5U U16C G17A	≤ 0.5
C4A C11A C33A	≤ 0.5
C4A C11A C33G A37G A40C C49G G67C	≤ 0.5
C4A C11G	0.769
C4A C11U A14U A20C U28G	≤ 0.5
C4A C11U A21U G23A C62U U64C G67A	≤ 0.5
C4A C11U C29G A40U	≤ 0.5
C4A C22A C55G A57C	≤ 0.5
C4A C24G	0.714

Variant	yeast fitness
C4A C24U G50A A65U	≤ 0.5
C4A C27A G38A	0.513
C4A C27G C29G A42C C55A	≤ 0.5
C4A C27G C46A U47A	≤ 0.5
C4A C29G C30U	≤ 0.5
C4A C29G C34G C60G	≤ 0.5
C4A C30G A40U G44A G50A C55U	≤ 0.5
C4A C30G A65G	≤ 0.5
C4A C31U C46A	0.726
C4A C31U G44A A45U	0.574
C4A C33G C61G G68C	≤ 0.5
C4A C34A G52C C60G	≤ 0.5
C4A C34G C46G G56A	≤ 0.5
C4A C55A C66U	≤ 0.5
C4A C55G C62A	≤ 0.5
C4A C60U	0.825
C4A G6A G25A C29G A57G	≤ 0.5
C4A G6A G50C A57C A69C	≤ 0.5
C4A G6C C55U	≤ 0.5
C4A G9C C11G G44C C55U	≤ 0.5
C4A G10A C31A A65C	≤ 0.5
C4A G10A C46U	≤ 0.5
C4A G10A U32C A36U	≤ 0.5
C4A G10C C29G A65U	≤ 0.5

Variant	yeast fitness
C4A G12A C62U	≤ 0.5
C4A G12C G41C A57C G68A	≤ 0.5
C4A G17A G41A U47C G50C	≤ 0.5
C4A G17A G51C	≤ 0.5
C4A G18C C29A C31A	0.562
C4A G23A U35C	≤ 0.5
C4A G25C C34U A57C	≤ 0.5
C4A G39C A45C	≤ 0.5
C4A G50A G63C	≤ 0.5
C4A G50C C60G	≤ 0.5
C4A U7A G18C	≤ 0.5
C4A U8A	0.694
C4A U8A A21U U26A A37C C49U	≤ 0.5
C4A U8A C24U A65G	≤ 0.5
C4A U8A G12C U19C C30U	≤ 0.5
C4A U16G G39C C66G G68C	≤ 0.5
C4A U19C U35C G48A	≤ 0.5
C4A U28G U47G	≤ 0.5
C4A U32C A40U C62G C66G	≤ 0.5
C4A U32C C49U C55U	≤ 0.5
C4A U54G	0.612
C4G A14C A42G G67A	≤ 0.5
C4G A14C C27A C31A	≤ 0.5
C4G A14U C60A U64C	≤ 0.5

Variant	yeast fitness
C4G A15C C46A	≤ 0.5
C4G A15G G17C C34A G50A	≤ 0.5
C4G A15U C33A G68C	≤ 0.5
C4G A20C A40G G52C	0.6
C4G A20C C22U	≤ 0.5
C4G A20C U54G	0.529
C4G A20U C46U	0.614
C4G A21C A43U C55A	≤ 0.5
C4G A21C U35C A69C	≤ 0.5
C4G A21G C34U G44C C55G	≤ 0.5
C4G A21G C46A U54A A69U	≤ 0.5
C4G A21G G63C	≤ 0.5
C4G A36U C46U G67A A70G	≤ 0.5
C4G A40C A42C G56A	≤ 0.5
C4G A40U A45U C62U	≤ 0.5
C4G A40U C49A C55U G68A	≤ 0.5
C4G A43U A70U	0.623
C4G C5A C11U G18C C55U	≤ 0.5
C4G C5G C30U C31U A45U A57G A70U	≤ 0.5
C4G C5G C33G C49G	≤ 0.5
C4G C5G C34G A57G A65G C66U	≤ 0.5
C4G C5U C22G C62G	≤ 0.5
C4G C5U C27G C34A A65C	≤ 0.5
C4G C5U C29A C46G	≤ 0.5

Variant	yeast fitness
C4G C11A A42U C46G	≤ 0.5
C4G C11A U26A	≤ 0.5
C4G C11G A42G C55U C61A	≤ 0.5
C4G C11U C22G A40U A43G G48C G51C A57G C61G	≤ 0.5
C4G C11U C24G C27G A65U	≤ 0.5
C4G C11U C60G	≤ 0.5
C4G C11U G18A C22U A43U	≤ 0.5
C4G C11U U28G A45C U53A G63C	0.559
C4G C22G G52C G68C	0.575
C4G C24G A65C	≤ 0.5
C4G C24G C27G A42C C62G	≤ 0.5
C4G C24U A65C	≤ 0.5
C4G C24U U35C C66U	0.559
C4G C24U U59C	≤ 0.5
C4G C27A A36G A70U	≤ 0.5
C4G C27G C34G G51A	≤ 0.5
C4G C27U A45C G48C C61G	≤ 0.5
C4G C27U G58C	0.71
C4G C29A C66U	≤ 0.5
C4G C29G A36C G39C U53A	≤ 0.5
C4G C30A A42C G67C	≤ 0.5
C4G C30G G50U	≤ 0.5
C4G C31A A43C C46G C66G	≤ 0.5
C4G C31G A37C G50A	≤ 0.5

Variant	yeast fitness
C4G C33G A43C	≤ 0.5
C4G C33U	0.708
C4G C34A A40G	≤ 0.5
C4G C34U A57G C60A	≤ 0.5
C4G C34U C62U A69U	≤ 0.5
C4G C34U G52C G68A	≤ 0.5
C4G G6A C24U A40U G56C	≤ 0.5
C4G G6A G18C U26A G48A	≤ 0.5
C4G G6C A65U	≤ 0.5
C4G G9A A21C C22A U26C	≤ 0.5
C4G G9A C27U C46G G48A C62G G68C	≤ 0.5
C4G G9A C29U A37C	≤ 0.5
C4G G9A G12C C29A G50C	≤ 0.5
C4G G9C C22A C49G U53A	≤ 0.5
C4G G9C C27U C29U U59C C62A	≤ 0.5
C4G G9C G41A C55U	≤ 0.5
C4G G10A G41C C62A	≤ 0.5
C4G G10A U13A U26G C27G C29U C33U C55U C61G	≤ 0.5
C4G G10A U13A U26G C27G C29U C33U U53C C61U	≤ 0.5
C4G G10A U28G	≤ 0.5
C4G G12A U28G C31U	≤ 0.5
C4G G17A G50A C55U G67C	≤ 0.5
C4G G17A U26C A40G G68U	≤ 0.5
